Laboratory results from paper PMC5342796.
These are yes or no findings as the source states them, for the method shown. In cells and extracts the contact can be indirect. A result given as binding can be weak or reduced; the word gives no strength.

Chains of the proteins cited; added tags and fusions are not shown. Lines headed by an entry give the natural chain unless they say otherwise; changes in a name come on top. A line that says so, or that is headed by a name, gives the form on record, which may keep a tag or linker. Residues count along the entry.
UniProt Q9H6I2: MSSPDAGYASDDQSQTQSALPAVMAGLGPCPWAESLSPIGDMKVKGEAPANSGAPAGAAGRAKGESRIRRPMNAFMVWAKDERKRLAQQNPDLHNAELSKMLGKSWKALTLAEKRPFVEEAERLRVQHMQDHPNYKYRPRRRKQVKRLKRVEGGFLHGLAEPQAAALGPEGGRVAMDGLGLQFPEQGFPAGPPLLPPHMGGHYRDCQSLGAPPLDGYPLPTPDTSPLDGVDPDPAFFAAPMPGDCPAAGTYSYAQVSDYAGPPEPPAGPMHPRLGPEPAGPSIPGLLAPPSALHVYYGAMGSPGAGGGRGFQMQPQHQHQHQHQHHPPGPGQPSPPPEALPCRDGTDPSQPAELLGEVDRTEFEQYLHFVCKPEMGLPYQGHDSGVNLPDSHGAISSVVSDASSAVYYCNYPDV
SOX17 N-terminus (aa 1-132), tagged: residues 1-132 of Q9H6I2
SOX17 C-terminus (aa 201-414), tagged: residues 201-414 of Q9H6I2
UniProt Q96JK9: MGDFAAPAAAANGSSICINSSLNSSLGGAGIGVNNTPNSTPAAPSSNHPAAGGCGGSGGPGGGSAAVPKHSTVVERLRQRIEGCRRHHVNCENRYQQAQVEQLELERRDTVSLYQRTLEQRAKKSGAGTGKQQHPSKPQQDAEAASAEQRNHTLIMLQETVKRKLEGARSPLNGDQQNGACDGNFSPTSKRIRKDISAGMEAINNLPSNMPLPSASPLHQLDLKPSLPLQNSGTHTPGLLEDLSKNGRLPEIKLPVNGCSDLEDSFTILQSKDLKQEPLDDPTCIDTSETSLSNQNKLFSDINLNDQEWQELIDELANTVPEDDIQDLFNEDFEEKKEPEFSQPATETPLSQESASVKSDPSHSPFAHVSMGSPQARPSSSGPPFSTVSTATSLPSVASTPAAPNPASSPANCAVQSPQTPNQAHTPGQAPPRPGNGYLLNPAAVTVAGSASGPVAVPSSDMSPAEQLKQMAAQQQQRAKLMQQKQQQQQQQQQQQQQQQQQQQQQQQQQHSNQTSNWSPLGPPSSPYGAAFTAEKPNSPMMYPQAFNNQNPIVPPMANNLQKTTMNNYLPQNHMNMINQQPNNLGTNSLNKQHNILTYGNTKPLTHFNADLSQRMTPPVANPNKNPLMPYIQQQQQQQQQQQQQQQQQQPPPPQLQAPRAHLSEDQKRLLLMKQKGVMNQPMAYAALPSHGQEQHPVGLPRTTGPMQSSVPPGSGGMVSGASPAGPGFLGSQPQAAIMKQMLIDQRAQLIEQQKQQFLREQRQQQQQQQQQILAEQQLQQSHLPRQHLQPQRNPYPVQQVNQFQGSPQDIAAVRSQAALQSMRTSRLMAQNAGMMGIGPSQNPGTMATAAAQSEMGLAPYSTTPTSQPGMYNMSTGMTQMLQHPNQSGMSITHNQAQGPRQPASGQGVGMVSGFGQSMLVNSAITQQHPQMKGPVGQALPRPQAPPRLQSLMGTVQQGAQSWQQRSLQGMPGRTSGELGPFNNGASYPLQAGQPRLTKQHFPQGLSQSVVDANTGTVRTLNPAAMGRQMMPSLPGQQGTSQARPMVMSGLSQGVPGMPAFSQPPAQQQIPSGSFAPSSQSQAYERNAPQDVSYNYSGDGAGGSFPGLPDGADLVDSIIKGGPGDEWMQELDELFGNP

Experiments:
Assay in all cases: co-IP; HEK293 cells cotransfected with HA- or c-Myc-tagged full-length or fragment SOX17 and MAML3 vectors; blots with HA and c-Myc antibodies
[1] = biological target: SOX17 C-terminus (aa 201-414), tagged (UniProt Q9H6I2)
[2] = biological target: SOX17 full-length protein, tagged (UniProt Q9H6I2)
[3] = biological target: SOX17 N-terminus (aa 1-132), tagged (UniProt Q9H6I2)

binding [1]	binding [2]	binding [3]	Substance
binds	binds	binds	MAML3 N-terminus (aa 1-506), tagged (from UniProt Q96JK9) (domain or fragment)
no binding	no binding	no binding	MAML3 C-terminus (aa 844-1134), tagged (from UniProt Q96JK9) (domain or fragment)
